Data on 57 molecules can be found in PubChem BioAssay AID2685 (National Center for Advancing Translational Sciences (NCATS), 2010).

SMILES strings stand for the structures. The list shows a part of the results. Further columns of the screen follow, without active or inactive calls. Most of these compounds were active or inconclusive in the main read-out, so they are no random draw. Potencies come from curve fits of mixed quality, noted in brackets.

The assay is described as follows: qHTS Assay for Lipid Storage Modulators in Drosophila S3 Cells.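 On cell number change: cells counted by Cell Tracker Red CMTPX staining in the red channel.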 The settings on record: BODIPY lipid droplet fluorescence, 18-24 h; for cell number change: measured here: cell count max response, cells fed with added oleic acid. The method, boiled down:
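Drosophila S3 cells loaded with oleic acid (400 uM, as added) and compounds at several concentrations; lipid droplets imaged by 488-nm laser-scanning cytometry, 500–530 nm intensity and object ratio to cell channel. Percent activity normalized to 20 uM Triacsin C.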
For orientation: In qHTS, concentration-response curves come from the screen itself.

Setting [1] is: measured here: lipid fluorescence (Fed channel) AC50, cells fed with added oleic acid.
The mark [2] stands for this setting: measured here: cell number channel AC50, cells fed with added oleic acid.

A word on the AC50: it is the concentration at which the activity in the assay is half-maximal. Turning to `O=C(Nc1ccccc1N1CCCC1)C1CCN(S(=O)(=O)c2ccccc2)CC1`, the cell number change is -7.56%. The AC50 under setting [1] was 16.4 µM [falling, partial curve].
As to `COc1ccc(-c2nc3ccc(N4CCCC4)cc3c(=O)[nH]2)cc1OC`, the cell number change was -8.2%.
For `CCOc1ccc(NC(=O)CSc2nnc(C3CC3)n2C2CC2)cc1`, the cell number change is -13.2%. Further, under setting [1], the AC50 is 0.0517 µM [falling, full curve, poor fit].
For the molecule `CC[C@@]12C(=O)N(c3cccc(Br)c3)C(=O)N1[C@H](c1ccc(F)cc1)[C@@H]1C(=O)N(C3CCCCC3)C(=O)[C@@H]12`, the cell number change turned out to be 13.7%. Also, under setting [1], the AC50 was 0.00461 µM [falling, full curve, poor fit].
Turning to `O=C(N[C@H]1CCC(=O)N(CCSc2ccc(Br)cc2)CC1)OCc1ccccc1`, the cell number change turned out to be 3.05%.
As to `Cc1cc(NC(=O)c2cccnc2)ccc1NC(=O)c1ccco1`, the cell number change was determined as 9.59%. For the same molecule, the AC50 under setting [1] is 5.8 µM [rising, single point].
For `CCOC(=O)C1=C(C)NC2=C(C(=O)c3ccccc32)C1c1cccc2ccccc12` (centres undefined), under setting [1], the AC50 is 14.6 µM [falling, partial curve].
Consider `COc1cc(NC(=O)c2ccccc2)ccc1NC(=O)Cc1ccccc1`, for which the cell number change is -26.2%. For the same molecule, the AC50 under setting [1] is 0.731 µM [rising, single point].
As for `CCCOc1ccc(C=Nc2ccc(OC)c(S(=O)(=O)N3CCOCC3)c2)c(O)c1`, the cell number change is -24.1%.
Consider `CCCSc1nnc(N2C(=O)CC(c3ccsc3)C3=C2CCCC3=O)s1` (centres undefined), for which the cell number change amounted to 37%.
As to `CCN1C(=O)/C(=C/c2ccc(OC)c(OC)c2)N=C1SCC(=O)NCc1ccco1`, the cell number change was found to be 21%. In addition, the AC50 under setting [1] is 6.51 µM [falling, single point].
In the case of `CCOc1ncccc1C(=O)OCC(=O)N(CC(C)C)C1CCS(=O)(=O)C1` (centres undefined), the cell number change was found to be 23.8%. Besides, under setting [2], the AC50 is 1.84 µM [rising, full curve, poor fit].
As for `Cc1ccn(CC(=O)O)c(=O)c1`, the cell number change was -3.34%. For the same molecule, the AC50 under setting [1] was 8.2 µM [falling, partial curve, poor fit].
Consider `O=C(Nc1ccc(Cl)c(S(=O)(=O)N2CCCCC2)c1)c1ccco1`, for which, under setting [1], the AC50 was 0.461 µM [falling, single point].
With `CN(CC1CCOCC1)C(=O)CC1C(=O)NCCN1Cc1cccc(F)c1` (centres undefined), the cell number change is 31.9%. Further, the AC50 under setting [2] was 16.4 µM [rising, single point]. Further, the AC50 under setting [1] is 20.6 µM [rising, single point].
With `c1ccc(COc2ccc(OCCCN3CCCCC3)cc2)cc1`, the cell number change is 8.19%. Besides, the AC50 under setting [1] was 0.259 µM [falling, full curve, poor fit].
In the case of `CC(C)CC(=O)Nc1nnc(S(=O)(=O)N(C)Cc2ccco2)s1`, the AC50 under setting [1] is 0.116 µM [rising, single point].
In the case of `O=C(Cn1cc(C(F)(F)F)cc(Cl)c1=O)Nc1ccc(N2CCOCC2)cc1`, the cell number change was found to be 51.7%. In addition, the AC50 under setting [2] was 0.92 µM [rising, full curve]. Moreover, the AC50 under setting [1] is 0.82 µM [rising, full curve, poor fit].
In the case of `Cn1c(-c2ccccc2)cnc1NCc1ccc(F)cc1`, the cell number change is -17.9%.
On to `c1cc(CN2CCN(C3CCCCCC3)CC2)ccn1`, for which the cell number change stood at 65.2%. The AC50 under setting [2] is 23.1 µM [rising, single point].
In the case of `Cc1cc2ccccn2c1C(=O)c1cccc([N+](=O)[O-])c1`, the cell number change was 48.9%. For the same molecule, under setting [2], the AC50 was 0.461 µM [rising, full curve, poor fit]. For the same molecule, the AC50 under setting [1] is 0.461 µM [rising, full curve, poor fit].
As to `Cc1ccc(S(=O)(=O)N2CCOCC2)cc1NS(=O)(=O)c1ccc(F)c(F)c1`, the cell number change stood at 7.76%. In addition, the AC50 under setting [1] is 0.082 µM [rising, full curve, poor fit].
Consider `COc1ccc(CN2C(=O)C(O)(CC(=O)c3ccc4c(c3)OCO4)c3ccccc32)cc1OC` (centres undefined), for which the AC50 under setting [2] is 0.0651 µM [rising, full curve, poor fit].
In the case of `CCN(CC)S(=O)(=O)c1ccc(N2CCN(S(=O)(=O)c3ccccc3)CC2)nc1`, the cell number change was 26.2%.
Turning to `Cn1c(SCc2ccon2)nc2ccccc2c1=O`, the cell number change was -11.4%. Also, under setting [1], the AC50 was 5.17 µM [rising, full curve].
Turning to `CCOC(=O)CSc1nc(=O)n2cccc(C)c2n1`, the cell number change amounted to 12.8%. Moreover, under setting [2], the AC50 is 6.51 µM [rising, single point].
Regarding `CN1CCN(C(=O)c2ccc3c(c2)S(=O)(=O)c2ccccc2C3=O)CC1`, the AC50 under setting [2] is 0.517 µM [rising, full curve] and the AC50 under setting [1] is 1.16 µM [rising, partial curve].
Take `c1ccc2c(CSc3nnc(-c4ccncc4)o3)cccc2c1`: the cell number change came out at 106%. Besides, under setting [1], the AC50 was 1.46 µM [falling, partial curve].
On to `CCOc1ccccc1NC(=O)c1ccc(Cl)c(NC(=O)CC(c2ccccc2)c2ccccc2)c1`, for which the cell number change is -24.7%. Also, the AC50 under setting [1] is 29.1 µM [falling, single point].
For `COc1ccc(CC(=O)Nc2cccc(-c3cn4ccccc4n3)c2)cc1`, the cell number change is -1.93%. Further, under setting [2], the AC50 was 0.146 µM [falling, full curve, poor fit]. In addition, the AC50 under setting [1] is 1.84 µM [rising, partial curve].
In the case of `CC1CCN(C(=O)CSc2nc3c(c(=O)n2C)SC(C)C3)CC1` (centres undefined), the cell number change came out at 12%. Under setting [1], the AC50 was 0.731 µM [falling, partial curve, poor fit].
For the molecule `CN(C(=O)COC(=O)CSc1cc(Cl)ccc1Cl)c1c(N)n(Cc2ccccc2)c(=O)[nH]c1=O`, the AC50 reads like this: under setting [2], 6.51 µM [falling, single point]; under setting [1], 0.0058 µM [falling, full curve, poor fit].
Take `Cc1sc2ncnc(N(C)Cc3ccco3)c2c1C`: the cell number change came to 37.5%. Under setting [2], the AC50 was 1.84 µM [rising, full curve]. Also, the AC50 under setting [1] is 29.1 µM [rising, single point].
With `COc1cc(OC)c(OC)cc1/C=C1\CCC/C(=C\c2cc(OC)c(OC)cc2OC)C1=O`, the cell number change is -19.4%. Moreover, the AC50 under setting [1] is 6.51 µM [rising, single point].
Take `O=C(NCc1cccc(Cl)c1)C1=CC=CN2CCS(=O)(=O)N=C12`: the cell number change is -31.4%. Besides, the AC50 under setting [2] was 14.6 µM [falling, partial curve, poor fit]. The AC50 under setting [1] is 0.82 µM [falling, full curve, poor fit].
Regarding `COc1ccc(NC(=O)CN2CCN(c3c(C)cc(C)cc3C)CC2)cc1`, the cell number change amounted to 13.8%.
Consider `COc1ccc(NC(=O)c2ccc3c(c2)OCO3)cc1`, for which the cell number change was -6.04%. Also, the half-maximal activity concentration (AC50) under setting [1] is 6.51 µM [rising, single point].
`O=C(NCCCn1ccnc1)C(=O)NCC(c1cccnc1)N1CCN(c2ccc(F)cc2)CC1` (centres undefined): the cell number change is -5.2%. The AC50 under setting [1] is 23.1 µM [rising, single point].
For `COc1cc(C2Oc3ccccc3C=C2[N+](=O)[O-])cc(OC)c1OC` (centres undefined), the cell number change is -52.6%. Besides, the AC50 under setting [2] was 18.4 µM [falling, partial curve]. Under setting [1], the AC50 was 20.6 µM [falling, partial curve].
Take `Cc1cc(Cl)ccc1OCc1n[nH]c(=S)n1C1CCCCC1`: the cell number change is -84.1%. The AC50 under setting [2] is 29.1 µM [falling, single point]. Under setting [1], the AC50 was 0.13 µM [rising, full curve, poor fit].
For `Cc1ccc(OCC(=O)N(Cc2cccc(Cl)c2)C2CCS(=O)(=O)C2)cc1C` (centres undefined), the cell number change turned out to be 0.989%.
In the case of `CCn1c(SCC(=O)N2c3ccccc3CCc3ccccc32)nnc1-c1ccc(OC)cc1`, the cell number change was -4.68%. In addition, under setting [1], the AC50 is 18.4 µM [falling, single point].
`CSc1nc2nc3c(c(=O)n2[nH]1)CCCC3`: the cell number change is -26.2%. Also, under setting [2], the AC50 was 0.291 µM [falling, full curve]. For the same molecule, under setting [1], the AC50 was 18.4 µM [falling, partial curve].
Turning to `Cc1cc(C)c(S(=O)(=O)Nc2ccc3c(c2)CCC3)c(C)c1`, the cell number change was -92.9%. Moreover, under setting [2], the AC50 was 16.4 µM [falling, partial curve].
Consider `O=C(c1cc(COc2ccc(F)cc2Cl)on1)N1CCN(C2CCCCC2)C(=O)C1`, for which the cell number change is -25.8%. Moreover, the AC50 under setting [2] is 0.291 µM [falling, full curve, poor fit]. The AC50 under setting [1] is 0.58 µM [rising, single point].
Consider `COc1ccc(C(=O)/C=C/c2ccc(OC3CSC3)cc2)cc1OC`, for which the cell number change is -2.79%. Moreover, under setting [1], the AC50 is 0.13 µM [falling, partial curve, poor fit].
In the case of `N#CCCN(C(=O)CSc1nc(-c2ccccc2)cn1N)c1ccc(F)cc1`, the cell number change worked out at 65.1%. Besides, the AC50 under setting [2] is 0.0058 µM [rising, full curve, poor fit].
Turning to `Cc1ccc(Nc2ccc(C(N)=O)cc2[N+](=O)[O-])cc1`, the cell number change is -31.3%. Further, the AC50 under setting [2] is 0.651 µM [falling, full curve]. In addition, under setting [1], the AC50 is 23.1 µM [falling, partial curve].
`COc1ccccc1C(=O)NC(=O)COC(=O)CCOc1ccc(C)cc1`: the cell number change came out at 2.37%. The AC50 under setting [1] was 3.26 µM [falling, single point].
On to `N=c1c2ccccc2nnn1-c1ccc(C(F)(F)F)cc1`, for which the cell number change stood at 6.18%. In addition, under setting [2], the AC50 is 0.58 µM [rising, full curve, poor fit].
On to `COc1cc(OC)c(OC)cc1/C=N/NC(=O)C[n+]1ccccc1`, for which the cell number change was -65.5%. In addition, the AC50 under setting [2] is 29.1 µM [falling, single point]. For the same molecule, under setting [1], the AC50 was 1.84 µM [falling, partial curve].
For the molecule `CC(NS(=O)(=O)c1ccc(Cl)cc1)C(=O)OCC(=O)Nc1ccc(N(C)C)cc1` (centres undefined), the cell number change was -22.8%. In addition, the AC50 under setting [1] is 29.1 µM [rising, single point].
In the case of `Cc1sc2nc(C3CC3)nc(SCC(=O)N3CCCc4ccccc43)c2c1C`, the cell number change came out at 11.6%. Also, the AC50 under setting [1] is 16.4 µM [rising, single point].
In the case of `c1ccc(-c2nnsc2-c2ncc[nH]2)cc1`, under setting [1], the AC50 was 1.64 µM [rising, single point].
`O=C(CN1C2=NCCCN2c2ccccc21)c1cccc(Br)c1`: the cell number change turned out to be 16.7%. Further, the AC50 under setting [1] is 7.31 µM [rising, partial curve].
On to `O=C(C1CCN(S(=O)(=O)c2cccnc2)CC1)N1CCN(c2cccc(Cl)c2)CC1`, for which the cell number change amounted to 17.5%. For the same molecule, the AC50 under setting [1] is 0.411 µM [rising, single point].
For `CCN(CC)S(=O)(=O)c1ccc(NC(=O)CSc2nnc(-c3cccc(OC)c3)n2C)cc1`, the cell number change was -26.6%. Moreover, the AC50 under setting [2] was 4.61 µM [falling, full curve, poor fit]. Further, the AC50 under setting [1] was 3.66 µM [falling, full curve].
